Measurements reported in PubChem BioAssay AID686943 (Drosophila RNAi Screening Center, 2013)

Aim: 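Search across the genome for regulators of signalling from receptor tyrosine kinase to ERK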 (primary screen)
System: Drosophila S2R+ haemocyte-like cells expressing YFP-tagged ERK (Rolled)
Reagents: long dsRNA against Drosophila genes
Conditions: insulin stimulation versus unstimulated cells; dose and duration not given
Detection: 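Per-plate z-scores of phospho-ERK immunostaining normalised to YFP-tagged ERK, measured with and without insulin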
Direction: replicate 1, z-score of dpERK with insulin and replicate 2, z-score of dpERK with insulin: higher = more active ERK per ERK-YFP after insulin
The screen tested about 23,000 reagents; below is a random part of those that have a named target and a result. 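Extra replicates exist only for a retested subset of genes; insulin dose and duration not given; both raised and lowered dpERK matter.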 Further read-outs or replicates are left out here. Not stated in the record: the amount of reagent, the time to read-out.

| target gene | DRSC id | replicate 1, z-score of dpERK with insulin | replicate 2, z-score of dpERK with insulin |
| --- | --- | --- | --- |
| CG10725 (GeneID 39510) | DRSC09788 | -0.22 | -0.06 |
| CG9411 (GeneID 32392) | DRSC20184 | -0.68 | -1.42 |
| pst (GeneID 38818) | DRSC11003 | -0.64 | -2.25 |
| orion (GeneID 31712) | DRSC18213 | 0.91 | -0.32 |
| orion (GeneID 31712) | DRSC18214 | -0.38 | -0.04 |
| CG15715 (GeneID 39726) | DRSC10216 | 0.41 | 0.3 |
| CG15199 (GeneID 32051) | DRSC19646 | 0.04 | -0.09 |
| CG18641 (GeneID 33429) | DRSC00527 | 0.32 | -0.75 |
| CG32450 (GeneID 318034) | DRSC11546 | -0.38 | 0.03 |
| Kmn1 (GeneID 32102) | DRSC19666 | -0.02 | 0.33 |
| v (GeneID 32026) | DRSC20383 | -0.91 | -1.73 |
| CG13251 (GeneID 40286) | DRSC11699 | 0.08 | -0.76 |
| ZnT77C (GeneID 40271) | DRSC11766 | -0.36 | -0.3 |
| ZnT77C (GeneID 40271) | DRSC11767 | -0.64 | -0.89 |
| Hexim (GeneID 41778) | DRSC15490 | -0.53 | -0.73 |
| CG31347 (GeneID 318693) | DRSC21582 | 0.31 | 0.59 |
| CG33158 (GeneID 39834) | DRSC09708 | -0.56 | 0.43 |
| CG33158 (GeneID 39834) | DRSC09709 | -0.29 | 0.05 |
| CG33158 (GeneID 39834) | DRSC10438 | 0.56 | -0.19 |
| Dop1R1 (GeneID 41726) | DRSC13020 | 0.43 | -0.23 |
| Dop1R1 (GeneID 41726) | DRSC13021 | 0.62 | -0.35 |
| Dop1R1 (GeneID 41726) | DRSC16652 | -1.61 | -2.6 |
| scaf6 (GeneID 3346235) | DRSC10075 | 0.56 | -0.06 |
| scaf6 (GeneID 3346235) | DRSC10676 | -0.09 | 1.05 |
| scaf6 (GeneID 3346235) | DRSC10678 | 2.99 | 0.07 |
| CG5255 (GeneID 42073) | DRSC15754 | 0.21 | 0.84 |
| Doa (GeneID 43415) | DRSC13892 | -0.39 | 0.45 |
| Doa (GeneID 43415) | DRSC13893 | 0.49 | 0.32 |
| Doa (GeneID 43415) | DRSC13895 | 0.31 | 0.1 |
| Doa (GeneID 43415) | DRSC13896 | 1.02 | 0.41 |
| Doa (GeneID 43415) | DRSC13897 | -0.1 | -0.4 |
| Doa (GeneID 43415) | DRSC16650 | -1.61 | 0.03 |
| CG8353 (GeneID 34123) | DRSC03084 | 0.14 | -0.27 |
| Dora (GeneID 50356) | DRSC19614 | -1.35 | 0.6 |
| Dora (GeneID 50356) | DRSC19781 | 1.28 | 0.78 |
| Dora (GeneID 50356) | DRSC20034 | 0.47 | 0.51 |
| Dora (GeneID 50356) | DRSC20035 | -2.37 | -1.15 |
| CG31327 (GeneID 318684) | DRSC13019 | -0.03 | 0.32 |

8 successive reagents from above, quoted:
| target gene | DRSC id | replicate 1, z-score of dpERK with insulin | replicate 2, z-score of dpERK with insulin |
| --- | --- | --- | --- |
| CG5255 (GeneID 42073) | DRSC15754 | 0.21 | 0.84 |
| Doa (GeneID 43415) | DRSC13892 | -0.39 | 0.45 |
| Doa (GeneID 43415) | DRSC13893 | 0.49 | 0.32 |
| Doa (GeneID 43415) | DRSC13895 | 0.31 | 0.1 |
| Doa (GeneID 43415) | DRSC13896 | 1.02 | 0.41 |
| Doa (GeneID 43415) | DRSC13897 | -0.1 | -0.4 |
| Doa (GeneID 43415) | DRSC16650 | -1.61 | 0.03 |
| CG8353 (GeneID 34123) | DRSC03084 | 0.14 | -0.27 |

The listing continues.
| target gene | DRSC id | replicate 1, z-score of dpERK with insulin | replicate 2, z-score of dpERK with insulin |
| --- | --- | --- | --- |
| Rpn12 (GeneID 39845) | DRSC11275 | -2.13 | -4.25 |
| Tsf2 (GeneID 39435) | DRSC09751 | -1.2 | -0.31 |
| Msp300 (GeneID 3771968) | DRSC00854 | -1.48 | -2 |
| Msp300 (GeneID 3771968) | DRSC00856 | -0.24 | 1.54 |
| Msp300 (GeneID 3771968) | DRSC00857 | 0.31 | 1.3 |
| Msp300 (GeneID 3771968) | DRSC00858 | -0.22 | -1.05 |
| Msp300 (GeneID 3771968) | DRSC02360 | 0.61 | -0.1 |
| Msp300 (GeneID 3771968) | DRSC03369 | 0.87 | 1.73 |
| Msp300 (GeneID 3771968) | DRSC03370 | 0.23 | -0.08 |
| CG31802 (GeneID 318949) | DRSC02459 | 0.89 | 0.07 |
| RpL12 (GeneID 45329) | DRSC04344 | -3.28 | -1.29 |
| CG17597 (GeneID 35140) | DRSC02630 | 0.09 | -0.2 |
| nst (GeneID 39434) | DRSC09755 | 0.41 | -0.72 |
| abd-A (GeneID 42037) | DRSC13179 | -0.64 | -3.27 |
| abd-A (GeneID 42037) | DRSC16897 | -1.49 | -3.14 |
| RpL24-like (GeneID 41372) | DRSC16111 | -0.36 | -0.42 |
| hec (GeneID 32246) | DRSC19895 | 0.21 | 0.42 |
| Claspin (GeneID 326205) | DRSC08308 | -0.89 | -0.46 |
| CR31700 (GeneID 8673969) | DRSC03682 | 0.23 | 0.67 |
